Results are given in words; binding and its absence hold for the method and conditions named. In cells and extracts the contact can be indirect. Tags and fused reporters may be left off the sequences shown.
Target: T1, GAPB fused to the N- or C-terminal fragment of luciferase (Arabidopsis) (UniProt P25857)
T1 sequence: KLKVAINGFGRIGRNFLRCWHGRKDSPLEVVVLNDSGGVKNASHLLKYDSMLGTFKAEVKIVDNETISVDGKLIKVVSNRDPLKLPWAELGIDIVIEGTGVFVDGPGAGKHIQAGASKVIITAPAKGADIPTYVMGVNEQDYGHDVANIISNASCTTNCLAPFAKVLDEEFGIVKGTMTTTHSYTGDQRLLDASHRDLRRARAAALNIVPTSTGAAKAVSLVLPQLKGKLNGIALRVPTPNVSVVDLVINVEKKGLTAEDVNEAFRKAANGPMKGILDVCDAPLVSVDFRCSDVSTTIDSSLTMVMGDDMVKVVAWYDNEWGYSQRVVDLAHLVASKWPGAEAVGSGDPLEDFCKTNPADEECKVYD
Experiment: split reporter; split luciferase complementation in infiltrated N. benthamiana leaves; permutations of fusions to N- and C-terminal fragments of LUC; luminescence analysed after 2 days

B1: tAPX fused to the N- or C-terminal fragment of luciferase (enzyme, UniProt Q42593 79-426)
chain: AASDAAQLISAKEDIKVLLRTKFCHPILVRLGWHDAGTYNKNIEEWPLRGGANGSLRFEAELKHAANAGLLNALKLIQPLKDKYPNISYADLFQLASATAIEEAGGPDIPMKYGRVDVVAPEQCPEEGRLPDAGPPSPADHLRDVFYRMGLDDKEIVALSGAHTLGRARPDRSGWGKPETKYTKTGPGEAGGQSWTVKWLKFDNSYFKDIKEKRDDDLLVLPTDAALFEDPSFKNYAEKYAEDVAAFFKDYAEAHAKLSNLGAKFDPPEGIVIENVPEKFVAAKYSTGKKELSDSMKKKIRAEYEAIGGSPDKPLPTNYFLNIIIAIGVLVLLSTLFGGNNNSDFSGF
B1 was tested, and the binding was “no binding”.

— paper PMC9166295
